From PubChem BioAssay AID504847 (National Center for Advancing Translational Sciences (NCATS), 2011)
In all, about 400,000 compounds went through this assay and about 3,700 (0.93%) were called active. Inconclusive means that the source gave no clear call. Such entries were picked first, then a sample of the others. The call rests on the fitted dose curve; in most records, active means well fitted inhibition curve with a large enough effect; inconclusive means small, poorly fitted or top-dose-only effect, or another doubt; inactive means no such curve, though single readings can be large or run the other way. A potency beside an inconclusive call is a rough fit, not a confirmed value.

Chains of the proteins cited; added tags and fusions are not shown. Lines headed by an entry give the natural chain unless they say otherwise; changes in a name come on top.
UniProt P11473: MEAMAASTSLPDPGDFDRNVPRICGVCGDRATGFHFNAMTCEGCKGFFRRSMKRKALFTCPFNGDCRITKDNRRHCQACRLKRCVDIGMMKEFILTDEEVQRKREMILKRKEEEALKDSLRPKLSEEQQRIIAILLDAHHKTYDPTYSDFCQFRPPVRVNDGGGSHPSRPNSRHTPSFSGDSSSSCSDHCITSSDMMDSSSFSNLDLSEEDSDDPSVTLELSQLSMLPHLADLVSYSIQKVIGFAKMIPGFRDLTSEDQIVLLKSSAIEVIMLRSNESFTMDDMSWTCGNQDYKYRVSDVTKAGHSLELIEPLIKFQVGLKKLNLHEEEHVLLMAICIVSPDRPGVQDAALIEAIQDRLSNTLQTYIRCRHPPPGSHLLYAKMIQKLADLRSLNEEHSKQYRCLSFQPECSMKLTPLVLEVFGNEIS

What follows are compounds tested against Vitamin D3 receptor (Homo sapiens) (UniProt P11473) (assay: Inhibitors of the vitamin D receptor (VDR): qHTS). Conditions: VDR-SRC2-3 peptide fluorescence polarization, 2 h; max response, negative = inhibition: stronger effect = lower value.
Summary of the method: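 Reagent solutions, kept cold and dark, are dispensed first; compounds are then pinned in at 23 nl, plates briefly spun, and incubated 2 h at ambient temperature. Inhibition of VDR–SRC2-3 peptide binding is read by fluorescence polarization.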
On the % scale 0 is the no-effect control and ±100 the full control effect; potency means the concentration at half of the fitted maximal effect.

Potency, active:
Cc1ccc(NN2C(=O)C=C(c3ccccc3)C2=O)cc1 25.1 µM, CCc1ccc2oc(-c3ccc(OC)cc3)cc(=Nc3cccc(C(=O)O)c3)c2c1 79.4 µM, Cc1ccc(C(=O)Nc2nc(=O)n(C(=O)c3ccccc3Cl)s2)cc1 17.8 µM, O=C1/C(=C\c2ccc(Cl)c(Cl)c2)CN(C(=O)CCN2CCOCC2)C/C1=C/c1ccc(Cl)c(Cl)c1 3.16 µM, CCOC(=O)C1Sc2[nH]c(=O)sc2C(c2ccc(Cl)cc2)C1C(=O)OCC (stereo not drawn) 79.4 µM

Potency, inconclusive:
Cc1cc(F)ccc1S(=O)(=O)N(C(=O)c1ccncc1)c1ccc(OC(=O)c2ccncc2)cc1 20 µM [inhibitor, partial curve, poor fit], CC(C)CNC(=O)C1Nc2ccc(OC(F)(F)F)cc2C2C=CCC12 (stereo not drawn) 89.1 µM [inhibitor, single point], COc1ccc2[nH]c(=O)c(CN(C3CCCCC3)C(c3nnnn3Cc3ccco3)C(C)C)cc2c1 (stereo not drawn) 89.1 µM [inhibitor, single point], COc1cc(C(=S)N2CCOCC2)cc(OC)c1OC(=O)c1ccc(F)cc1 89.1 µM [inhibitor, single point], O=C(/C=C\Nc1ccc2c(c1)OCO2)c1ccc2c(c1)OCO2 79.4 µM [inhibitor, partial curve, poor fit], CC[n+]1c(/C=C/N(C)c2ccccc2)oc2ccc(F)cc21 89.1 µM [inhibitor, single point], CN(C)c1ccc(C(=S)NC2CCCCC2)cc1 56.2 µM [inhibitor, partial curve, poor fit], C[C@@]12C(=O)NCC(=O)N1[C@@H]1c3cc(Br)ccc3OC[C@@H]1[C@@H]2c1ccccc1 100 µM [inhibitor, single point], COc1ccc2cccc(N3CCN(CCNC(=O)c4ccc(F)cc4)CC3)c2c1 63.1 µM [inhibitor, single point], COC(=O)CCC(=O)OC1(C)C(=O)C2=CN(Cc3ccccc3)C(c3ccc(OC)cc3)=CC2=C(Br)C1=O (stereo not drawn) 20 µM [inhibitor, partial curve, poor fit], Cc1sc(-n2c(C)cc(/C=N/n3cnnc3)c2C)c(C#N)c1C 89.1 µM [inhibitor, single point], Cc1ccc(NC(=S)NCc2ccc3c(c2)cc(C)n3C)c(C)c1 39.8 µM [inhibitor, single point], N=C1C(c2ccccc2)=C(O)CN1c1cccc(S(=O)(=O)N2CCOCC2)c1 15.8 µM [inhibitor, partial curve, poor fit], CCOC(=O)C1=C(C)N(c2ccc(C)cc2)C(=O)/C1=C\c1ccc(O)c(OC)c1 89.1 µM [inhibitor, partial curve], CCOC(=O)C1=CN(Cc2ccco2)S(=O)(=O)NC1CC (stereo not drawn) 63.1 µM [inhibitor, partial curve, poor fit], O=[N+]([O-])c1ccc(C2CC(c3ccccc3)=Nc3ccccc3S2)cc1 (stereo not drawn) 56.2 µM [inhibitor, partial curve, poor fit], CCNc1ncc2nc(-c3cccs3)c(=O)n(-c3ccccc3)c2n1 44.7 µM [inhibitor, partial curve, poor fit], COc1ccc(NC(=O)CCc2nc3cccnc3n2-c2ccccc2)cc1Cl 20 µM [inhibitor, partial curve, poor fit], O=C(C[n+]1ccc(CCSc2ccc(F)cc2)cc1)c1ccccc1 44.7 µM [inhibitor, partial curve], Cc1cccc(NC(=S)NCC23C=CC(O2)C2C(=O)N(c4ccc(Cl)cc4)C(=O)C23)c1 (stereo not drawn) 89.1 µM [inhibitor, single point], CCCn1c(CCC(=O)Nc2cccc(C)c2C)nc2cccnc21 89.1 µM [inhibitor, single point], CC(C(=O)NC1C=CS(=O)(=O)C1)N1C(=O)/C(=C/c2ccc(Cl)cc2)SC1=S (stereo not drawn) 50.1 µM [inhibitor, partial curve, poor fit], CCOC(=O)CC(NC(=O)c1cc2cccc(OC)c2oc1=O)c1cccc([N+](=O)[O-])c1 (stereo not drawn) 79.4 µM [inhibitor, partial curve], C=C[C@H]1[C@H](OC2OC(CO)C(O)C(O)C2O)OC=C(C(=O)OC)[C@H]1C[C@H]1CC(=O)C[C@H](CC(=O)CCc2ccc(O)cc2)O1 (stereo partly drawn) 100 µM [inhibitor, single point], COc1ccc(/C=C/C(=O)Nc2cc(C)on2)cc1 39.8 µM [inhibitor, full curve], O=C(O)C1Sc2[nH]c(=O)sc2C2c3cc(Br)ccc3OC(=O)C12 (stereo not drawn) 79.4 µM [inhibitor, partial curve, poor fit]

Max response, negative = inhibition, inactive:
CC(=O)N1[C@H](Cc2ccccc2)C=C[C@]1(C)C(=O)NCc1ccccn1 -3.02%, CCCC1(C)Nc2ccccc2-c2nc3ccccc3n21 (stereo not drawn) 2.69%, CCc1ccc(NC2=NC(C(=O)c3ccccc3)CC(=O)N2)cc1 (stereo not drawn) -12.3%, O=[N+]([O-])c1cccc(NC(=S)N2CCN(c3ccccn3)CC2)c1 -1.7%, CCOC(=O)c1c(NC(=O)CSc2cccc[n+]2[O-])sc(C(=O)Nc2ccccc2)c1C -17%, O=C(CC1C[C@H](C(=O)N2CCOCC2)[C@@]2(CCC3CCCC3)c3[nH]c4ccccc4c3CCN2C1=O)NCc1cccc(C(F)(F)F)c1 (stereo partly drawn) -3.51%, CC(C)C[C@@H](CN)NC(=O)c1nc[nH]c1C(=O)N[C@@H](CC(C)C)C(=O)CNC[C@H](C)NC(=O)c1nc[nH]c1C(=O)N[C@@H](CC(=O)O)C(=O)O 12.5%
